Test system: Kidney-Chip (Co-culture of Proximal tubular cells and Kidney endothelial cells)
Assay: Gene expression (raw Ct, qPCR) in Kidney-Chip after nephrotoxic compounds
Type: cell-based, human
Settings: Cisplatin 100 μM or Gentamicin 10 mM, 24 h, RNA lysate Day 8; for Raw Ct value 18s RNA: housekeeping gene

N.N.[Cl][Pt][Cl] [Cisplatin]
Raw Ct value CLU (Clusterin): 21.15 | Raw Ct value KIM1: 26.69 | Raw Ct value OAT1: 34.46 | Raw Ct value OAT3: 27.23 | Raw Ct value 18s RNA: 6.419

Gentamicin
Raw Ct value CLU (Clusterin): 18.6417 | Raw Ct value KIM1: 23.4566 | Raw Ct value OAT1: 33.92 | Raw Ct value OAT3: 35.65 | Raw Ct value 18s RNA: 5.525

Source: patent US11841361B2, “Microfluidic proximal tubule kidney-on-chip” (EMULATE, INC., priority 2019, dated 2023)
